Experimental data: the supplement of paper PMC4635364
Structures can show the parent of a compound that is named as a salt. The list shows a part of the results. This data set is noisy: repeats of one test often differ as much as different tests do.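 Human fetal ventral-midbrain neural progenitor line ReNCell VM, differentiated without mitogens. Images stained for doublecortin (early neurons) or tyrosine hydroxylase (dopaminergic neurons) were scored by blinded raters against untreated wells (0 = no change). Repeats and both raters were averaged, and compounds averaging 2 or higher were picked as hits for retesting.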

tested on: ReNCell VM; test: dopaminergic neuron differentiation score (TH+ cell fraction vs untreated, manual image score) (score (0 to 3)); higher = more TH+ dopaminergic neuron differentiation; settings: library: Prestwick; 2 uM; 4 weeks; BDNF 10 ng/ml + GDNF 10 ng/ml

Dopaminergic neuron differentiation score, inactive:
CC/C(=C(/CC)c1ccc(O)cc1)c1ccc(O)cc1 [Diethylstilbestrol] 0
CC(=O)c1ccc2c(c1)N(CCCN1CCC(CCO)CC1)c1ccccc1S2 [Piperacetazine] 0
CN(c1nccc(=O)[nH]1)C1CCN(c2nc3ccccc3n2Cc2ccc(F)cc2)CC1 [Mizolastine] 0
Nc1ccc(S(=O)(=O)NC(=O)c2ccccc2)cc1 [Sulfabenzamide] 0
O=C1O[C@H]([C@@H](O)CO)C(O)=C1O [Ascorbic acid] 0
CC(C)NCC(O)COc1ccc(COCCOC(C)C)cc1 (centres undefined) [Bisoprolol fumarate] 0
O=C1NCN(c2ccccc2)C12CCN(CCCC(c1ccc(F)cc1)c1ccc(F)cc1)CC2 [Fluspirilen] 0
CCN(CC)Cc1cc(Nc2ccnc3cc(Cl)ccc23)ccc1O [Amodiaquin dihydrochloride dihydrate] 0
CN(C)CCn1nnnc1SCC1=C(C(=O)O)N2C(=O)[C@@H](NC(=O)Cc3csc(N)n3)[C@H]2SC1 [Cefotiam hydrochloride] 0
